{
  "source": "paper PMC11915853",
  "target": "T1, GST-fused capsid protein of tomato yellow leaf curl virus (tomato yellow leaf curl virus) (UniProt P27257)",
  "T1 sequence": "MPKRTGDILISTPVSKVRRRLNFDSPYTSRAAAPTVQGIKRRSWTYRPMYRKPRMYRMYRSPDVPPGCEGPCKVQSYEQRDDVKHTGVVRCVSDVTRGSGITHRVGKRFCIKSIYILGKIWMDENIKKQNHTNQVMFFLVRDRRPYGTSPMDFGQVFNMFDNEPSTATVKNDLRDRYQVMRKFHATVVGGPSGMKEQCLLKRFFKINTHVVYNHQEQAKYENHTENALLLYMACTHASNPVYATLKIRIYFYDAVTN",
  "assay": "pull-down; GST-tagged CPs or GST from bacterial lysates immobilised on MagneGST particles, incubated with bacterial lysate expressing 6x-his-PDE4 overnight at 4°C, washed three times; blots with anti-histidine and anti-GST; only the target purified",
  "note": "These are yes or no findings as the source states them, for the method shown. Binding seen in cells or lysates may run through a third protein. Binding calls can cover weak binding; strength is not graded here. Where a sequence is shown, tags or fusion partners need not be part of it.",
  "data": [
    {"substance": "6x-his-PDE4 of Bemisia tabaci (enzyme)", "values": [
      {"measurement": "binding", "value": "binds"}
    ]}
  ]
}
